Results as given in the supplement of paper PMC10849652.
This is one part of the list.

The chains behind the UniProt entries cited, without tags or fusion partners. Where a name states a change or a piece, a line headed by the entry shows the natural chain unless it says otherwise.
UniProt Q9UPR3: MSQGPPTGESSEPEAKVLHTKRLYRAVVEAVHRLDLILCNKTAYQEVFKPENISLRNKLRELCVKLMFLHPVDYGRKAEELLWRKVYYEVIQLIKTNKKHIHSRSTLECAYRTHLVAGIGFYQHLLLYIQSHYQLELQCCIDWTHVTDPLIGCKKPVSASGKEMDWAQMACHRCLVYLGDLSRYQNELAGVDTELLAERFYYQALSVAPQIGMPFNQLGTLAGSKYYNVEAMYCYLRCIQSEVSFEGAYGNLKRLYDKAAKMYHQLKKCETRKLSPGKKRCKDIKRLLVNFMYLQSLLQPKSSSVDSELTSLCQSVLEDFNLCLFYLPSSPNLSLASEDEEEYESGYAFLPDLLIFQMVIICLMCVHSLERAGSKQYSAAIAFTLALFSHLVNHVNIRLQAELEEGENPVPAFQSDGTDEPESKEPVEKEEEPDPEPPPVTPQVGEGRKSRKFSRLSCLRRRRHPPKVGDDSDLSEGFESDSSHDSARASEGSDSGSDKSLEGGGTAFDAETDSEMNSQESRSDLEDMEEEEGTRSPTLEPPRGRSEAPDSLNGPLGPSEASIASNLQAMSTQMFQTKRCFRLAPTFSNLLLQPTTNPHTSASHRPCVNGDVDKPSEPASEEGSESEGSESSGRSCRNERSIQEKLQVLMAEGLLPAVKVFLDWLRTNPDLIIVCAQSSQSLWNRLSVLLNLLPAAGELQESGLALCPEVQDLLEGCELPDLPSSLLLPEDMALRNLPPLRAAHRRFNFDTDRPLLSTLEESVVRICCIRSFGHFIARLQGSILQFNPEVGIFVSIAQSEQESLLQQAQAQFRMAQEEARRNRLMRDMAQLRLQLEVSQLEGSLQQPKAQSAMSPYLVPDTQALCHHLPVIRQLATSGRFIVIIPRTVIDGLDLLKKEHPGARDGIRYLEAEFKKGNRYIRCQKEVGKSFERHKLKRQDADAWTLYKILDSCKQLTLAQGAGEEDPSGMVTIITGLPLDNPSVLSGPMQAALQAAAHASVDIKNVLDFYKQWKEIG
UniProt P09661: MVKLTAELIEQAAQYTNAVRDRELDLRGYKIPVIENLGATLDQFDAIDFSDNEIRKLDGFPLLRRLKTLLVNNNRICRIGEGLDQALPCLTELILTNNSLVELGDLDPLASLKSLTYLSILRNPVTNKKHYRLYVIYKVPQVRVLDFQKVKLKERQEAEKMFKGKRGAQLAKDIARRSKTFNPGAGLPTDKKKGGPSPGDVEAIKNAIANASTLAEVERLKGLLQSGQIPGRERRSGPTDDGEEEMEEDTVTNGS
UniProt Q9H0W8: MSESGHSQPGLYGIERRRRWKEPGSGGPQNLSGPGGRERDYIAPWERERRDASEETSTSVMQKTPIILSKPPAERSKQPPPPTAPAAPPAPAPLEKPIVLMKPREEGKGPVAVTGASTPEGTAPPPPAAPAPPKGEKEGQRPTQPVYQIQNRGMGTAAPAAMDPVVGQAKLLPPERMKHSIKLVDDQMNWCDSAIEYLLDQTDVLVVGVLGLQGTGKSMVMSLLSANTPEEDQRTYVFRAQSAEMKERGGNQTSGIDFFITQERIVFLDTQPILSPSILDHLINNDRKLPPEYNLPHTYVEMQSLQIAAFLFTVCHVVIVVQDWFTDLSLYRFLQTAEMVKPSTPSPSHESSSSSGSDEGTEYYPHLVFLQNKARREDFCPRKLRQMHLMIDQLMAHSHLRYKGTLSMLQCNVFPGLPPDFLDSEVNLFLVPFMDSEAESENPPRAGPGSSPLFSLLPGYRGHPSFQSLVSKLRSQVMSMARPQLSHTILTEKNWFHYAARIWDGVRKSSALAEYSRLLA
UniProt O60749: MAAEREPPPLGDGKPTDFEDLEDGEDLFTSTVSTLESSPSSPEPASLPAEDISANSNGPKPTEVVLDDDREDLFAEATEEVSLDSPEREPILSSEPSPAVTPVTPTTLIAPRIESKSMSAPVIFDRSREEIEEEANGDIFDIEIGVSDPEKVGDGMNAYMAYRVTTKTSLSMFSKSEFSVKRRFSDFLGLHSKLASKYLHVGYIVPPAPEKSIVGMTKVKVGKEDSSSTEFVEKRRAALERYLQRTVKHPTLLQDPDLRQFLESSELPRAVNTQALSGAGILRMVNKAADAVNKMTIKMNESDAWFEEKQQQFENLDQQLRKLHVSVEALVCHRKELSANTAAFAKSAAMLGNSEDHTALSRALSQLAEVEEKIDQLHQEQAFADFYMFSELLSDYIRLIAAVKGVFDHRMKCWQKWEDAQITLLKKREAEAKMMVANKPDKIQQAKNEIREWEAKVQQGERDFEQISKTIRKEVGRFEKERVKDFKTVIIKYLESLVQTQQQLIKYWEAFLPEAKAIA
UniProt P57768: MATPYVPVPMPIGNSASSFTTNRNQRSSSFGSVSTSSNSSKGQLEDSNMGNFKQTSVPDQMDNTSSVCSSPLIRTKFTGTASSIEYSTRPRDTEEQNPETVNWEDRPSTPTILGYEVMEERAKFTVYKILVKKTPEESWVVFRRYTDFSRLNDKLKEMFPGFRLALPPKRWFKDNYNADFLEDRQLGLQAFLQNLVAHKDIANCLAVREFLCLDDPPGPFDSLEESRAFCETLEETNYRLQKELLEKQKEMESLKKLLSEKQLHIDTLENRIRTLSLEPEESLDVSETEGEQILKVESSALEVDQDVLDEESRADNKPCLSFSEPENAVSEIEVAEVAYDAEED
UniProt Q8ND04: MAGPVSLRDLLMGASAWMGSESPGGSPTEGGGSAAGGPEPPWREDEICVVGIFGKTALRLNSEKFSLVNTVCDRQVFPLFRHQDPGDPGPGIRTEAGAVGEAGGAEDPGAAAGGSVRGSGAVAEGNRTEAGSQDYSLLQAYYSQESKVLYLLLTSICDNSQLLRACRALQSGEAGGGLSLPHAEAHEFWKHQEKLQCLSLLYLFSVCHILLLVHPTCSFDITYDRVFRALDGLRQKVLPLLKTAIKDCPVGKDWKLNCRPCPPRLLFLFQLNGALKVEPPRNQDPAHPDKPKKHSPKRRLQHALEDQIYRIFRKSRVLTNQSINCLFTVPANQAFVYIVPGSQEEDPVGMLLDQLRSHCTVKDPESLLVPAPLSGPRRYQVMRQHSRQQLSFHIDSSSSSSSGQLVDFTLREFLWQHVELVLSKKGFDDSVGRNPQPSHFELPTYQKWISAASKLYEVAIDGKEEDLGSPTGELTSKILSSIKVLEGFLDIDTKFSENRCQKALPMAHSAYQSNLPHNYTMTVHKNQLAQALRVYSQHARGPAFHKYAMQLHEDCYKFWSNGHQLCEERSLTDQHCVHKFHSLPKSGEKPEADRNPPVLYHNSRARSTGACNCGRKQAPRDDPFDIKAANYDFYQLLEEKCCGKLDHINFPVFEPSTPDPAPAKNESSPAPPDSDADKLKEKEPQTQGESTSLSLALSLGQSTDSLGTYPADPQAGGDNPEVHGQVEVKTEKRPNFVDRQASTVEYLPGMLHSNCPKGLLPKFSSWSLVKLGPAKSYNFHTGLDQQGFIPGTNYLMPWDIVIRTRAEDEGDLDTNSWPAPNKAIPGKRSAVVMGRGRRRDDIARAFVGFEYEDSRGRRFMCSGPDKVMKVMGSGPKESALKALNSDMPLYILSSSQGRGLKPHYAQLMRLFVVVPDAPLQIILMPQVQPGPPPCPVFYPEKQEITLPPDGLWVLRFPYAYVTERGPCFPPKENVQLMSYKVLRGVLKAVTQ
UniProt Q99523, whole entry, looked up: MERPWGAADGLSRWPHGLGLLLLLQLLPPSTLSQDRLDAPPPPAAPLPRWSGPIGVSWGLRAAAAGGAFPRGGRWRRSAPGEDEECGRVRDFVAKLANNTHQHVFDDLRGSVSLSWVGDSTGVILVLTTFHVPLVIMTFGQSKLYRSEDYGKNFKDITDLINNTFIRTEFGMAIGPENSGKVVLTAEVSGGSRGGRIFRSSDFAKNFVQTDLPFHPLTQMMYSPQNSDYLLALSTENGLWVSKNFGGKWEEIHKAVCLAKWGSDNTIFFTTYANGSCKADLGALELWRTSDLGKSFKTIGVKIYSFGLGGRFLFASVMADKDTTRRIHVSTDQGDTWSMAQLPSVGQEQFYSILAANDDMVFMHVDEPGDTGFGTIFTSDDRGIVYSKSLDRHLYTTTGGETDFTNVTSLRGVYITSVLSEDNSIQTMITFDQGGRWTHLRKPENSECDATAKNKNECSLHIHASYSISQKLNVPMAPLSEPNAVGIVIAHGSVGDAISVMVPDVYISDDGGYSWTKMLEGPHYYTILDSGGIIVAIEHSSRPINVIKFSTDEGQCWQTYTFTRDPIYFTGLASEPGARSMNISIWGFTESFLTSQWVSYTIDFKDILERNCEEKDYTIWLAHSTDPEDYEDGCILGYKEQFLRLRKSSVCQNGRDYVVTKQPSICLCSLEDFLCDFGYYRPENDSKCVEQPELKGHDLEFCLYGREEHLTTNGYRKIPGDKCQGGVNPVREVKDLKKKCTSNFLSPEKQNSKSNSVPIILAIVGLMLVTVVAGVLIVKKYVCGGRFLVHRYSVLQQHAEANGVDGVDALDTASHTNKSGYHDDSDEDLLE
UniProt P00441, whole entry, looked up: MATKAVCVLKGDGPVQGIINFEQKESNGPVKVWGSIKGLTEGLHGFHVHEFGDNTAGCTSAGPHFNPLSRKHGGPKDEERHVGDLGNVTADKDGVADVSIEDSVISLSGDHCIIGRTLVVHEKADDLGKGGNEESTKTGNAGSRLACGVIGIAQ
UniProt P62318, whole entry, looked up: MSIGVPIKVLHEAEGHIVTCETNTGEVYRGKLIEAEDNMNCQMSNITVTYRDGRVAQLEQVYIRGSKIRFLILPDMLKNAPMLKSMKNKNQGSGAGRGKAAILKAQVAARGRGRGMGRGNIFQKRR
UniProt P09012, whole entry, looked up: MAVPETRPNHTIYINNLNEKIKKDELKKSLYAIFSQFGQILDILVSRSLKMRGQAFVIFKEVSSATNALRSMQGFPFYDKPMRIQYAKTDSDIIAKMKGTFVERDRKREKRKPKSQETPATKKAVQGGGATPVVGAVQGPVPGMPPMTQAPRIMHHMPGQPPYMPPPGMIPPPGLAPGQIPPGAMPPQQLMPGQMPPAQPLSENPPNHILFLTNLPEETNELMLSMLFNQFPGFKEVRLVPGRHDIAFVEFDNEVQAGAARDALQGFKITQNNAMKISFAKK
UniProt Q9Y5W9: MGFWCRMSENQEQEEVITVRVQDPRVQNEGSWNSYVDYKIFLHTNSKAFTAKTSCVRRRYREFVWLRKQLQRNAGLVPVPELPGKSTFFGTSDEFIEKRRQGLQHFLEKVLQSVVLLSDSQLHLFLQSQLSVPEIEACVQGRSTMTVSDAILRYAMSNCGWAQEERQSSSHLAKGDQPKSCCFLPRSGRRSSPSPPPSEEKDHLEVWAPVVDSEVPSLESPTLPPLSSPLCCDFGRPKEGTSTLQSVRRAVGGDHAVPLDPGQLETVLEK
UniProt Q9NTJ3, whole entry, looked up: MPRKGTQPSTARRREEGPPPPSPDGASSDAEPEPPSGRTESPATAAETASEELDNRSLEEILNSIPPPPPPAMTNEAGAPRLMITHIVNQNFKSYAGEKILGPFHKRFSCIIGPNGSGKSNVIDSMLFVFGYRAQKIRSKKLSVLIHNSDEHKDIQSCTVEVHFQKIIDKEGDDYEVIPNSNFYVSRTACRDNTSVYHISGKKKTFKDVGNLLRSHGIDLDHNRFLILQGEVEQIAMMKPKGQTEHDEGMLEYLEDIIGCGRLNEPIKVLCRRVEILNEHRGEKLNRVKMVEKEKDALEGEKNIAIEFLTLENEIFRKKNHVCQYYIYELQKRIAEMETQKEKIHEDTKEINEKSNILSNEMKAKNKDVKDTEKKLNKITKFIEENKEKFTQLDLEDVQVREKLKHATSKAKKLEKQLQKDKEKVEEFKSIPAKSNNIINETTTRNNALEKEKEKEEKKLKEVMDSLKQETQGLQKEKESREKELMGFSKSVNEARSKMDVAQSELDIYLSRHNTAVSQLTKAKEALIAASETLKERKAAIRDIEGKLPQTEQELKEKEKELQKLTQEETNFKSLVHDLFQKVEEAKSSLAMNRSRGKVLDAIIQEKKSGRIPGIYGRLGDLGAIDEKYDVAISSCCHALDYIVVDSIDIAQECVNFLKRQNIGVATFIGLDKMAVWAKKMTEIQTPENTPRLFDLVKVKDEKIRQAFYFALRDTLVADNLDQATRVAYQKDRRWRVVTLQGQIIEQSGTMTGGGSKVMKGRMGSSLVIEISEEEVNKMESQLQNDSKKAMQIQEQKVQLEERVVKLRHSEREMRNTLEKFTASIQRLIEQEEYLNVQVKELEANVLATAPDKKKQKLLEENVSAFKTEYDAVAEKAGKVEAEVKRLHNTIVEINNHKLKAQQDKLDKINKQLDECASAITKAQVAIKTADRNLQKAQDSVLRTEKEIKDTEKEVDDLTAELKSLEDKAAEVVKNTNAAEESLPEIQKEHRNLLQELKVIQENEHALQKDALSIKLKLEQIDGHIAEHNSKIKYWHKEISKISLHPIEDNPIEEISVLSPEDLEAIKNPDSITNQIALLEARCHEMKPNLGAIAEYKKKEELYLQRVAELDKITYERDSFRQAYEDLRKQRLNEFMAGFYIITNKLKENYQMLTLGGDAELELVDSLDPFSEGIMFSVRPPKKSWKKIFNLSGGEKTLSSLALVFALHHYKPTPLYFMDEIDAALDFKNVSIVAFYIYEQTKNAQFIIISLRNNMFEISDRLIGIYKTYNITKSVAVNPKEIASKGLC

Columns and labels:
Test in all cases: log2 fold change, soluble protein after heating vs DMSO (PISA); higher = thermal stabilisation; K562 lysate, 10 uM; active = over 0.2 and 3.5 SD of the protein, either way, in both replicates (recomputed)
[1] = compound: C1=CC=C(C=C1)[C@H](COC2=CC3=C(C=C2)NC(=O)N3)NC(=O)C4=CC=CN(C4=O)CC5=CC(=C(C=C5)F)F
Procedure, shortened: (§1)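 Log-two fold change in thermal stability relative to solvent controls is reported from duplicates. For each sample, crude K562 extract from dounce-homogenised pellets in PBS pH 7.4 with 1 mM MgCl2, at 1 mg/mL protein, was treated with 10 μM compound for 30 min. Aliquots heated for 3 min across 48°C-58°C were pooled, brought to 0.5% NP-40 at 4°C and cleared at 21,000xg for 90 min. The supernatant was quantified by TMTpro 16plex LC-MS/MS with channel sums equalised.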

[2] = compound: CC1=C(SC2=C1C(=N[C@H](C3=NN=C(N32)C)CC(=O)N)C4=CC=C(C=C4)Cl)C
Procedure, shortened: as §1

[3] = compound: CC1=C2C(=CC=C1)N=C(N(C2=O)C3=CC=CC=C3C)CN4C=NC5=C(N=CN=C54)N
Procedure, shortened: as §1

[4] = compound: Cc1sc2c(c1C)C(c1ccc(Cl)cc1)=N[C@@H](CC(=O)OC(C)(C)C)c1nnc(C)n1-2
Procedure, shortened: as §1

[5] = compound: c1ccc([C@@H]2C[C@H]2NC2CCNCC2)cc1
Procedure, shortened: as §1

Measured: log2 fold change

SMG6 (UniProt Q86US8)
inactive: [1] 0.097 | [2] -0.041 | [3] -0.043 | [4] 0.076 | [5] 0.073

SON isoform 9 (UniProt P18583)
inactive: [1] -0.034 | [2] -0.084 | [3] -0.027 | [4] 0.036 | [5] -0.031

SMUG1 (UniProt Q53HV7)
inactive: [1] 0.05 | [2] 0.079 | [3] 0.027 | [4] 0.043 | [5] -0.165

SMG5 (UniProt Q9UPR3)
inactive: [1] -0.078 | [2] 0.041 | [3] 0.026 | [4] -0.047 | [5] -0.024

SOGA1 isoform 2 (UniProt O94964)
inactive: [1] -0.033 | [2] 0.052 | [3] 0.054 | [4] 0.063 | [5] 0.13

SNRPA1 (UniProt P09661)
inactive: [1] 0.045 | [2] -0.005 | [3] 0.01 | [4] -0.013 | [5] -0.002

SMYD3 (UniProt Q9H7B4)
inactive: [1] 0.028 | [2] 0.05 | [3] 0.035 | [4] -0.001

SMG9 (UniProt Q9H0W8)
inactive: [1] 0.005 | [2] 0.03 | [3] 0.026 | [4] -0.02 | [5] -0.001

SNX9 (UniProt Q9Y5X1)
inactive: [1] 0.002 | [2] 0.004 | [3] 0.038 | [4] 0.027 | [5] 0.038

SNX2 isoform 2 (UniProt O60749)
inactive: [1] -0.029 | [2] 0.072 | [3] 0.145 | [4] -0.101

SMU1 (UniProt Q2TAY7)
inactive: [1] 0.027 | [2] -0.058 | [3] 0.005 | [4] 0.037 | [5] -0.009

SPAG1 (UniProt Q07617)
inactive: [1] -0.046 | [2] -0.327 | [3] 0.081

SMG1 (UniProt Q96Q15)
inactive: [1] -0.05 | [2] -0.012 | [3] 0.018 | [4] 0.034 | [5] 0.046

SMC2 (UniProt O95347)
inactive: [1] -0.007 | [2] 0.018 | [3] 0.016 | [4] 0.003 | [5] 0.069

SNX5 (UniProt Q9Y5X3)
inactive: [1] 0.025 | [2] -0.01 | [3] 0.012 | [4] 0.004 | [5] 0.021

SMCR8 (UniProt Q8TEV9)
inactive: [1] 0.092 | [2] -0.062 | [3] -0.016 | [4] 0.026 | [5] -0.093

SNRPB2 (UniProt P08579)
inactive: [1] 0.025 | [2] -0.006 | [3] 0.005 | [4] -0.005 | [5] 0.004

SNRNP25 (UniProt Q9BV90)
inactive: [1] -0.019 | [2] -0.066

SNX6, A0A0A0MRI2
inactive: [1] 0.014 | [2] 0.006 | [3] 0.016 | [4] 0.017 | [5] 0.115

SNX17 (UniProt Q15036)
inactive: [1] 0.004 | [2] 0.016 | [3] 0.054 | [4] 0.02 | [5] 0.051

SNTA1 (UniProt Q13424)
inactive: [1] 0.013 | [2] 0.044 | [3] 0.023 | [4] 0.205 | [5] 0

SMNDC1 (UniProt O75940)
inactive: [1] 0.035 | [2] 0 | [3] -0.003 | [4] -0.014 | [5] -0.023

SMC4 (UniProt C9JJ64)
inactive: [1] -0.189 | [2] 0.179

SNAP29 (UniProt O95721)
inactive: [1] 0.101 | [2] 0.038 | [3] 0 | [4] 0.018 | [5] -0.038

SMIM12 (UniProt Q96EX1)
inactive: [1] -0.026 | [2] -0.006 | [3] 0.004 | [4] 0.105 | [5] 0.153

SMC1B isoform 3 (UniProt Q8NDV3)
inactive: [1] 0.009 | [2] 0.076 | [3] 0.12 | [4] -0.063

SNAPIN (UniProt O95295)
inactive: [1] 0.027 | [2] -0.074 | [3] -0.046 | [4] -0.012 | [5] -0.025

SNX14 (UniProt Q9Y5W7)
inactive: [1] 0.038 | [2] -0.058 | [3] -0.014 | [4] -0.075

SNX16 (UniProt P57768)
inactive: [1] 0.128 | [2] -0.016 | [3] -0.038 | [4] -0.073 | [5] -0.128

2 records picked at random from those above, as already listed:
SMC1B isoform 3 (UniProt Q8NDV3)
inactive: [1] 0.009 | [2] 0.076 | [3] 0.12 | [4] -0.063

SMIM12 (UniProt Q96EX1)
inactive: [1] -0.026 | [2] -0.006 | [3] 0.004 | [4] 0.105 | [5] 0.153

(cont.)

SNRNP40 (UniProt Q96DI7)
inactive: [1] 0.023 | [2] -0.03 | [3] 0.012 | [4] 0 | [5] -0.002

SMIM8 (UniProt Q96KF7)
inactive: [1] 0.061 | [2] 0.044 | [3] 0.004 | [4] 0.047 | [5] -0.157

SNU13 (UniProt P55769)
inactive: [1] 0.032 | [2] 0.01 | [3] -0.09 | [4] 0.024 | [5] 0

SMG8 isoform 2 (UniProt Q8ND04)
inactive: [1] 0.014 | [2] 0.042 | [3] 0.024 | [4] 0.017 | [5] 0.107

SNX8 (UniProt Q9Y5X2)
inactive: [1] 0.003 | [2] 0.041 | [3] 0.017 | [4] -0.014 | [5] -0.034

SNRPD1 (UniProt P62314)
inactive: [1] -0.048 | [2] 0.047 | [3] -0.02 | [4] -0.028 | [5] -0.018

SNRNP48 (UniProt Q6IEG0)
inactive: [1] -0.148 | [2] 0.059 | [3] 0.091 | [4] 0.002 | [5] 0.011

SNRPD2 (UniProt P62316)
inactive: [1] 0.039 | [2] -0.021 | [3] 0.028 | [4] -0.009 | [5] -0.068

SORT1 (UniProt Q99523)
inactive: [1] 0.011 | [2] 0.012 | [3] 0.022 | [4] -0.022 | [5] -0.02

SOD1 (UniProt P00441)
inactive: [1] 0.04 | [2] -0.027 | [3] -0.061 | [4] 0.051 | [5] 0.159

SNW1 (UniProt Q13573)
inactive: [1] 0.018 | [2] -0.002 | [3] -0.009 | [4] 0.022 | [5] 0.048

SNX12 isoform 1 (UniProt Q9UMY4)
inactive: [1] -0.011 | [2] -0.004 | [3] 0.013 | [4] -0.001 | [5] 0.023

SNRPF (UniProt P62306)
inactive: [1] 0.04 | [2] -0.084 | [3] -0.12 | [4] -0.103 | [5] -0.206

SOCS2 (UniProt O14508)
inactive: [1] 0.053 | [2] -0.006 | [3] 0.077 | [4] 0.017 | [5] -0.025

SOX5 (UniProt P35711)
inactive: [1] -0.092 | [2] -0.052 | [3] 0.076 | [4] -0.005 | [5] 0

SNRPD3 (UniProt P62318)
inactive: [1] -0.02 | [2] -0.011 | [3] 0.022 | [4] -0.027 | [5] -0.118

SP1 (UniProt P08047)
inactive: [1] 0.007 | [2] 0.042 | [3] 0.001 | [4] 0.038 | [5] 0

SNCA (UniProt P37840)
inactive: [1] 0.211 | [2] 0 | [3] -0.009 | [4] 0.211 | [5] -0.077

SMS (UniProt P52788)
inactive: [1] -0.013 | [2] 0.026 | [3] -0.001 | [4] 0 | [5] 0.011

SNRPE (UniProt P62304)
inactive: [1] 0.002 | [2] 0.018 | [3] 0.007 | [4] -0.044 | [5] -0.024

SNRNP200 (UniProt O75643)
inactive: [1] 0.01 | [2] 0.017 | [3] 0.011 | [4] 0.002 | [5] -0.001

SNX4 (UniProt O95219)
inactive: [1] 0.029 | [2] -0.051 | [3] 0 | [4] -0.026 | [5] 0.01

SNRPA (UniProt P09012)
inactive: [1] 0.012 | [2] 0.052 | [3] 0.022 | [4] -0.055 | [5] -0.012

SNX11 (UniProt Q9Y5W9)
inactive: [1] 0.063 | [2] 0.009 | [3] 0.09 | [4] -0.09 | [5] 0.051

SMC4 (UniProt Q9NTJ3)
inactive: [1] -0.033 | [2] 0.003 | [3] -0.011 | [4] -0.005 | [5] 0.055

SMTN isoform 6 (UniProt P53814)
inactive: [1] 0.053 | [2] -0.011 | [3] -0.01 | [4] 0.01 | [5] 0.081
